For this experiment, the target named is GFP-tagged SNEV (SNEV^hPrp19/hPso4) (UniProt Q9UMS4). The experiment can be described thus: co-IP; GFP-Trap beads (ChromoTek) with cleared lysate of GFP-SNEV-Hela cells (1 mg total protein), 1 h at 4°C; lysis buffer 50 mM Hepes-KOH pH 7.5, 150 mM KCl, 1% Triton X-100; cells treated with 100 μM H2O2 or left untreated; Western blot.

Chains of the proteins cited; added tags and fusions are not shown.
UniProt Q9UMS4: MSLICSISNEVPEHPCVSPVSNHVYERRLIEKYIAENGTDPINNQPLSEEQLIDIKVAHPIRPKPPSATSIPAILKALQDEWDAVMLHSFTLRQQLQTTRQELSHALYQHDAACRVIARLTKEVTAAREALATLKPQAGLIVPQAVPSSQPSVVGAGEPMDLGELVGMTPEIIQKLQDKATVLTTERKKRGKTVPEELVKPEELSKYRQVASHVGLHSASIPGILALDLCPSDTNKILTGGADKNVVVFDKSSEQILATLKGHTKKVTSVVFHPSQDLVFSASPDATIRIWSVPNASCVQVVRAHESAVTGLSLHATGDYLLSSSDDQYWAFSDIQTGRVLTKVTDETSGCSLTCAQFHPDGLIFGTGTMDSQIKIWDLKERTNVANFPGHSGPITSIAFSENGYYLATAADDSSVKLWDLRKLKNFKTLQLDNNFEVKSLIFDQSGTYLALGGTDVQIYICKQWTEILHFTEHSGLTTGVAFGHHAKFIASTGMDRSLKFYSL
UniProt Q99459: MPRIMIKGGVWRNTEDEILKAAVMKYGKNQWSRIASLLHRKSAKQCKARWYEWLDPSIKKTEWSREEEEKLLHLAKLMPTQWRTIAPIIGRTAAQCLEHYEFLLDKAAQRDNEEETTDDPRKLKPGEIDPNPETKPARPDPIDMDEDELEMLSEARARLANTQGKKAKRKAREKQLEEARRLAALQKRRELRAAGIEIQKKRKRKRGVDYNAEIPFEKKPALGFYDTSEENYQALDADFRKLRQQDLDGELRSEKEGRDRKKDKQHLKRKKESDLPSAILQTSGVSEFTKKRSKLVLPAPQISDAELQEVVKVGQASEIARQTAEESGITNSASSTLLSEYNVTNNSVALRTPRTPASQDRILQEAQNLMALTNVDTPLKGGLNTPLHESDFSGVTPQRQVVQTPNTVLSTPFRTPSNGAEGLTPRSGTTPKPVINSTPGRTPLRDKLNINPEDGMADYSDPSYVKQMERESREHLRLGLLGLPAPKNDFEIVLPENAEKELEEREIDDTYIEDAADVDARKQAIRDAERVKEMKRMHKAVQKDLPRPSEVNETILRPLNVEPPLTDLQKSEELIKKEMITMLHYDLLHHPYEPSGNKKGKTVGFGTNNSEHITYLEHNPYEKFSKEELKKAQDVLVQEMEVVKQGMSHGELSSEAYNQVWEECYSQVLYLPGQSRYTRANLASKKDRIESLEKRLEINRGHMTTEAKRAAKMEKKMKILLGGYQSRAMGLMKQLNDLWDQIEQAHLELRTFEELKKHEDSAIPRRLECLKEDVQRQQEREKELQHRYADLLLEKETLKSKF

Results are given in words; binding and its absence hold for the method and conditions named. In cells and extracts the contact can be indirect. Some entries that bind do so weakly or less than the wild type.

For CDC5L (from UniProt Q99459 1-802), the binding entry was “binds”.

The values are drawn from publication PMC3371764.
